{"source": "patent US20190078162A1", "about": "“IN VITRO METHODS FOR SKIN THERAPEUTIC COMPOUND DISCOVERY USING SKIN AGE BIOMARKERS” (OneSkin Technologies, Inc., priority 2017, published 2019)", "key": {"[1]": {"system": "dermis of old skin tissues", "test": "Testing compounds on old skin tissues: rtPCR of marker genes, age predicted by Dermis model", "type": "cell-based", "conditions": "dermis samples, versus control"}, "[2]": {"system": "epidermis of old skin tissues", "test": "Testing compounds on old skin tissues: rtPCR of marker genes, age predicted by Epidermis model", "type": "cell-based", "conditions": "epidermis samples, versus control"}}, "note": "At least one structure is not confirmed: it was looked up by name or label, or the drawing left a doubt."}
{"compound": "CC1=C(/C=C/C(C)=C/C=C/C(C)=C/C(=O)O)C(C)(C)CCC1", "note": "[Retinoic Acid, retinoic acid]", "values": [{"measurement": "effect of treatment on predicted skin age (in words)", "setting": "[1]", "result": "increased the skin age"}, {"measurement": "effect of treatment on predicted skin age (in words)", "setting": "[2]", "result": "increased the skin age"}]}
